PubChem BioAssay AID1259272 | Sanger Institute – 2017
Purpose: 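Find kinases needed for SW1116 growth and partners for drug combinations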 (primary screen). Cell system: SW1116 human colorectal cancer cells. Knock-down reagent: siRNA pool against human genes. Treatment: anchor drugs BYL719 (1 µM), cetuximab (5 µg/ml) or trametinib (10 nM), or DMSO vehicle; exposure length not given. Measured: 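Cell survival as a fraction of wells given a non-targeting pool, averaged over replicates; robust z-score without drug; synergy score for each of BYL719, cetuximab and trametinib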. Scale: viability z-score, no drug: higher = more cells remaining; strongly negative means essential gene; viability, no drug: higher = more viable cells; synergy score with BYL719: higher = stronger synthetic-lethal synergy with the drug. Call rule: 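a robust z-score under -3 with siRNA and no drug marks the gene essential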. Calls: active = essential (knock-down alone); inactive = no change.
The whole screen tested 794 reagents; below is a part drawn at random. 7 of them (0.88%) were called active. 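Essential calls reflect knock-down without drug only, not synergy with drugs; drug exposure length not given.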 No viability above 1 is reported: the scale is capped. Not all columns of the deposit are shown. No sequences are given here. Not given: the amount of reagent, the time to read-out.

| Target gene | viability z-score, no drug | viability, no drug (fraction of control) | synergy score with BYL719 | Call |
| --- | --- | --- | --- | --- |
| BCKDK | -0.477 | 0.859 | 0.0716 | inactive |
| NEK11 | -0.92 | 0.812 | -0.0609 | inactive |
| CEP290 | 0.842 | 1 | -0.0788 | inactive |
| RET | 0.842 | 1 | 0.0218 | inactive |
| PRKACG | 0.842 | 1 | 0.00834 | inactive |
| TRIB1 | 0.842 | 1 | 0.0136 | inactive |
| ERBB2 | 0.842 | 1 | -0.0788 | inactive |
| TRPM6 | 0.842 | 1 | -0.035 | inactive |
| NF1 | -0.463 | 0.861 | -0.026 | inactive |
| TWF2 | 0.819 | 0.998 | -0.0128 | inactive |
| MAP3K4 | 0.133 | 0.925 | -0.0892 | inactive |
| IGF1R | 0.842 | 1 | 0.0984 | inactive |
| FXN | 0.842 | 1 | -0.0179 | inactive |
| CKMT2 | 0.357 | 0.948 | 0.0328 | inactive |
| EPHA6 | -2.25 | 0.671 | -0.144 | inactive |
| SRMS | -0.959 | 0.808 | 0.0848 | inactive |
| TAB1 | 0.842 | 1 | -0.051 | inactive |
| CSNK1G2 | -1.12 | 0.791 | -0.235 | inactive |
| PIK3R1 | 0.842 | 1 | -0.0535 | inactive |
| ATR | -0.12 | 0.898 | -0.173 | inactive |

Copied from the list:
PRKACG, Call: inactive
Value for NF1 in “viability, no drug (fraction of control)”: 0.861

The listing continues:
| Target gene | viability z-score, no drug | viability, no drug (fraction of control) | synergy score with BYL719 | Call |
| --- | --- | --- | --- | --- |
| ITPKC | 0.842 | 1 | -0.0788 | inactive |
| PIK3C2B | 0.463 | 0.96 | -0.0893 | inactive |
| EPHB4 | -0.283 | 0.88 | -0.157 | inactive |
| SIK1 | -1.03 | 0.801 | -0.105 | inactive |
| NIM1K | 0.527 | 0.967 | -0.0126 | inactive |
| MYO3A | -1.44 | 0.757 | -0.0244 | inactive |
| LATS2 | 0.842 | 1 | -0.0788 | inactive |
| PKMYT1 | 0.425 | 0.956 | -0.0541 | inactive |
| PKN2 | 0.776 | 0.993 | 0.0553 | inactive |
| VRK3 | -0.761 | 0.829 | -0.185 | inactive |
| CSF1R | -0.442 | 0.863 | -0.0406 | inactive |
| MAPK13 | -0.578 | 0.849 | -0.0574 | inactive |
| PIP5K1C | 0.672 | 0.982 | -0.0172 | inactive |
| BMAL1 | -2.65 | 0.628 | -0.0843 | inactive |
| PANK3 | 0.842 | 1 | -0.0735 | inactive |
| DGKA | 0.26 | 0.938 | -0.0472 | inactive |
| PDPK1 | -0.64 | 0.842 | -0.115 | inactive |
| PTPRU | -0.445 | 0.863 | -0.107 | inactive |
| PRKACA | 0.344 | 0.947 | 0.0353 | inactive |
| FGFR2 | 0.267 | 0.939 | 0.00393 | inactive |
| PAK2 | 0.842 | 1 | -0.0123 | inactive |
| LMTK3 | 0.294 | 0.942 | 0.0256 | inactive |
| PDIK1L | 0.613 | 0.976 | -0.00656 | inactive |
| TRIB3 | -0.873 | 0.817 | -0.0913 | inactive |
| MAPK1 | -0.635 | 0.843 | 0.0612 | inactive |
| SMAD2 | -2.04 | 0.693 | -0.131 | inactive |
| FN3K | -1.64 | 0.736 | -0.142 | inactive |
| COQ8B | 0.608 | 0.975 | 0.069 | inactive |
| PTK7 | -2.29 | 0.666 | -0.15 | inactive |
| CPNE3 | 0.842 | 1 | 0.0446 | inactive |
